The nature of series [1]: general procedure: Boc solid-phase peptide synthesis; Boc-L-Pro-(Merrifield)-resin; BOP reagent/DIEA for some couplings; acid chloride coupling. Particulars: whole synthesis, head-to-tail ring.
Series [2] can be described thus: peptide synthesis. The conditions noted are these: whole synthesis, HPLC (Method G), scale of the general procedure 1 mmole.
Series [3] can be described thus: general procedure: Boc solid-phase peptide synthesis; chloromethylated resin (Merrifield resin); Boc-L-Pro-O-(PAM)-resin; BOP reagent/DIEA for some couplings; acid chloride coupling. Particulars: whole synthesis, scale of the general procedure 1 mmole.
Series [4] can be described thus: general procedure: Boc solid-phase peptide synthesis; Boc-Pro-O-(PAM)-resin; BOP reagent/DIEA for some couplings; acid chloride coupling. The conditions noted are these: whole synthesis, scale 1 mmole.
The nature of series [5]: general procedure: Boc solid-phase peptide synthesis; Boc-L-Pro-0-(PAM)-resin; BOP reagent/DIEA for some couplings; acid chloride coupling. The conditions noted are these: whole synthesis, scale 1 mmole, head-to-tail ring.
Series [6] in a line: general procedure: Boc solid-phase peptide synthesis; Merrifield resin; BOP reagent/DIEA for some couplings; acid chloride coupling. The conditions noted are these: whole synthesis, scale 2 mmole, head-to-tail ring.
A short description of series [7]: general procedure: Boc solid-phase peptide synthesis; Boc-L-Pro-PAM-resin; BOP reagent/DIEA for some couplings; acid chloride coupling. Particulars: whole synthesis, 214 nM, head-to-tail ring.
Series [8] can be described thus: general procedure: Boc solid-phase peptide synthesis; Boc-D-Trp-O-(Merrifield)-resin; BOP reagent/DIEA for some couplings; acid chloride coupling. The conditions noted are these: whole synthesis, scale 1 mmole, head-to-tail ring.
The nature of series [9]: general procedure: Boc solid-phase peptide synthesis; Boc-L-Pro-O-(PAM)-resin; BOP reagent/DIEA for some couplings; acid chloride coupling. The conditions noted are these: whole synthesis, scale 1 mmole, head-to-tail ring.
Series [10] can be described thus: general procedure: Boc solid-phase peptide synthesis; Boc-L-pro-(Merrifield)-resin; BOP reagent/DIEA for some couplings; acid chloride coupling. Particulars: whole synthesis, 210 nM, head-to-tail ring.
The mark [11] stands for this setting: HPLC (Method G), head-to-tail ring.

Regarding “c-[D-Tryptophanyl-L-isoleucinyl-D-pipecolyl-L-pipecolyl-D-(β-t-butyl)aspartyl-L-prolyl]”, in series [1] (214 nM), the “final HPLC purity” value is listed as over 95%.
“c-[D-(O-Benzyl)-tyrosyl-L-isoleucyl-D-(Nδ-Cbz)-piperazyl-L-(Nδ-Cbz)-piperazyl-D-phenylalanyl-L-prolyl]”: the “final HPLC purity” value in series [2] was determined as 96.3% pure.
For “C-[D-1-Nal-L-Ile-D-Pip-L-(Boc)Lys-D-(N-Me)-Phe-L-Pro]”, in series [3] (HPLC (Method G)), the “final HPLC purity” value is 99%. This substance returned an isolated yield in series [3] of 77%. The isolated mass in series [4] is listed as 350 mg.
As for “c-[D-phenylalanyl-L-isoleucyl-D-Δ-piperazyl-(Nδ-Boc)-L-ornithyl-N-methyl-D-phenylalanyl-L-prolyl]”, in series [2], the “final HPLC purity” value is 98.9%.
Turning to “c-[D-HomoPhe-L-Phe-D-Pip-L-Pip-D-(N-Me)Phe-L-Pro]”, in series [3] (setting [11]), the “final HPLC purity” value turned out to be 95%. Besides, in [3] (head-to-tail ring), the isolated yield turned out to be 43%. This substance had an isolated mass in [5] of 340 mg.
With “c-[D-Phenylalanyl-L-isoleucinyl-D-piperazin-2-yl (4-Cbz)-L-piperazin-2-yi (4-Cbz)-D-phenylaianyl-L-prolyl]”, the “final HPLC purity” value in series [3] (214 nM, head-to-tail ring) is recorded as over 96%. The isolated yield in [3] (overall, head-to-tail ring) worked out at 10%. In addition, in series [6], the crude mass is recorded as 1.93 g.
As for “c-[D-2-Naphthylalanyl-L-isoleucinyl-D-pipecolyl-L-piperazin-2-yl (4-Cbz)-D-(Na-methyl)-phenylalanyl-L-prolyl]”, in [1] (214 nM), the “final HPLC purity” value is over 98%.
With “c-[D-Phenylalanyl-L-isoleucinyl-D-pipecolyl-L-pipecolyl-D-(β-t-butyl)aspartyl-L-prolyl]”, the “final HPLC purity” value in series [1] (214 nM) is reported as over 98%.
Take “c-[D-Tryptophanyl-L-isoleucinyl-D-pipecolyl-D-piperazin-2-yl(4-Cbz)-D-(Nα-methyl)phenylalanyl-L-prolyl]”: the “final HPLC purity” value in [1] (210 nM) is on record as over 98%.
Take “c-[D-Tryptophanyl-L-isoleucyl-D-Δ-piperazyl-(Nδ-Boc)-L-ornithyl-N-methyl-D-phenylalanyl-L-prolyl]”: the “final HPLC purity” value in series [2] turned out to be 95.6%.
Turning to “c-[D-Tryptophanyl-L-isoleucinyl-D-prolyl-L-histidyl-D-histidyl-L-prolyl]”, in series [1] (210 nM), the “final HPLC purity” value was 99.7%.
Consider “c-[D-tryptophanyl-L-isoleucyl-D-piperazyl-(Nδ-Boc)-L-ornithyl-D-histidyl-L-prolyl]”, for which the “final HPLC purity” value in series [2] turned out to be 92.18%.
As for “c-[D-2-Trytophanyl-L-isoleucinyl-D-pipecolyl-L-piperazin-2-yl-(4-Cbz)-D-histidinyl(BOM)-L-prolyl]”, in [7], the “final HPLC purity” value is reported as over 96%.
On to “c-[D-Trp-L-Ile-D-Pip-L-Pip-D-His-3,4-dehydro-Pro]”, for which the isolated mass in [8] is 301 mg. For the same substance, the “final HPLC purity” value in series [3] (setting [11]) was 99%. Also, in series [3] (head-to-tail ring), the isolated yield came out at 40%.
As to “c-[D-2-Nal-L-Ile-D-Pip-L-(Cbz)Pipe-D-His-L-Pro]”, in series [3] (setting [11]), the “final HPLC purity” value was 96%. Also, the isolated yield in series [3] (head-to-tail ring) was determined as 26%. Besides, the isolated mass in series [9] amounted to 236 mg.
On to “c-[D-Tryptophanyl-L-isoleucinyl-D-pipecolyl-D-piperazin-2-yl(4-Cbz)-D-phenylalanyl-L-prolyl]”, for which the “final HPLC purity” value in series [10] is given as over 94.7%.

The values above are taken from EP0444898A1 (MERCK & CO. INC., priority 1990, dated 1991).
